This is one part of the list. Residues, ends and D or L forms follow the SMILES beside them. *: point of attachment. Cbz = O=C(OCc1ccccc1)*
Experiments:
Test in all cases: log2 fold change, soluble protein after heating vs DMSO (PISA); higher = thermal stabilisation; K562 cells, 10 uM, 30 min; active = over 0.2 and 3.5 SD of the protein, either way, in both replicates (recomputed)
IRAK-1-4 Inhibitor I = compound: C1COCCN1CCN2C3=CC=CC=C3N=C2NC(=O)C4=CC(=CC=C4)[N+](=O)[O-] [IRAK-1-4 Inhibitor I]
How it was run: (§1)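 K562 cells at 2×10^6 cells/mL were given 10 μM compound for 30 min. Aliquots then went through 3 min of heating across 48°C-58°C, were pooled, and were extracted in PBS with 0.5% NP-40 at 4°C, and the supernatant after 21,000xg for 90 min was quantified by TMTpro 16plex LC-MS/MS with channel sums equalised. Thermal stability relative to control samples, from duplicates, is given as log2 fold change.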

Sequences of proteins named here, by UniProt entry; tags and fusion partners are left off. A change or cut given only in a name is not applied to a line headed by its entry.
UniProt Q9BVA1, whole entry, looked up: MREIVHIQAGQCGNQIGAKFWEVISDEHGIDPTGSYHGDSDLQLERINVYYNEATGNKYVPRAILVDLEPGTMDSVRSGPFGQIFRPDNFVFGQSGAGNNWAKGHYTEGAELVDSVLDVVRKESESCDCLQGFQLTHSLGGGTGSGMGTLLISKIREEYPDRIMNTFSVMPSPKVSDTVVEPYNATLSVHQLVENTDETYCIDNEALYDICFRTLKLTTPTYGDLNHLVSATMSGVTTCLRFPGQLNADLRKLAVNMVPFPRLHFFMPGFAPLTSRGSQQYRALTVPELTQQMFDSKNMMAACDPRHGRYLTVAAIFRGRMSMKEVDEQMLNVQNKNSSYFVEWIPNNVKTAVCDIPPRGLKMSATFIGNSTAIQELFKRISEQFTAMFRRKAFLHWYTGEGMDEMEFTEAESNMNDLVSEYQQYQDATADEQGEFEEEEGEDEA
UniProt Q9NX01: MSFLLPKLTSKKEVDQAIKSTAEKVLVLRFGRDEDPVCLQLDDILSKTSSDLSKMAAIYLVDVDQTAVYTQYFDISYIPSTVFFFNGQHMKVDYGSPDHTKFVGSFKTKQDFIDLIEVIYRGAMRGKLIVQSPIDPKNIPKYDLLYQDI
UniProt A6NNZ2, whole entry, looked up: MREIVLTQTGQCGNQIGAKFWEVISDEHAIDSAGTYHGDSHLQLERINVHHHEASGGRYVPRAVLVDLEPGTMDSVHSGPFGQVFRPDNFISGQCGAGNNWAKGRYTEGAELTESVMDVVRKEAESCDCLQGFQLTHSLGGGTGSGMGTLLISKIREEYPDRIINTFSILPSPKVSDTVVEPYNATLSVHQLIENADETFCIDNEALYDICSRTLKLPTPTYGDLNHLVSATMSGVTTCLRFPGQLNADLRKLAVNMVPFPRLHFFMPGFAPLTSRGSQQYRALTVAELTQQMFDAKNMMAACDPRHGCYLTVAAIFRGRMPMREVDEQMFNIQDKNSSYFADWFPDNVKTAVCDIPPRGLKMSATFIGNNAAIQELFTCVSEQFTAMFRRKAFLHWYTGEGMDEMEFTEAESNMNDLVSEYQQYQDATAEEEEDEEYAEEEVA
UniProt P60604: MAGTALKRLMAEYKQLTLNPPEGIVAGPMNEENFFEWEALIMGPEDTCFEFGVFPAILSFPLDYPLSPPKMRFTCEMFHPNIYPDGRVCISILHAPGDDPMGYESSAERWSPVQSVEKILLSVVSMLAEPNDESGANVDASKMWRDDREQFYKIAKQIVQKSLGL
UniProt Q7Z7E8: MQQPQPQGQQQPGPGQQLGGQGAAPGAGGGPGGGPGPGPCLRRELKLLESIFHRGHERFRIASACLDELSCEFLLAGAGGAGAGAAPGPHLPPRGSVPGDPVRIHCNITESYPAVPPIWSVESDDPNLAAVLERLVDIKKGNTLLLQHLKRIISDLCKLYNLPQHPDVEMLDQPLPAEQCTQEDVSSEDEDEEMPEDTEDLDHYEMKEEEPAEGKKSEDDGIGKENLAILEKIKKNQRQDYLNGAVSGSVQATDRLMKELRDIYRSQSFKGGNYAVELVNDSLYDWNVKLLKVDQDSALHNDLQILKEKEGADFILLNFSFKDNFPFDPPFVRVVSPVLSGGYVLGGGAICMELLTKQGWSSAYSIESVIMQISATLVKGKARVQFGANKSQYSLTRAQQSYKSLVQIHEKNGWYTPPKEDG
UniProt Q5TAX3: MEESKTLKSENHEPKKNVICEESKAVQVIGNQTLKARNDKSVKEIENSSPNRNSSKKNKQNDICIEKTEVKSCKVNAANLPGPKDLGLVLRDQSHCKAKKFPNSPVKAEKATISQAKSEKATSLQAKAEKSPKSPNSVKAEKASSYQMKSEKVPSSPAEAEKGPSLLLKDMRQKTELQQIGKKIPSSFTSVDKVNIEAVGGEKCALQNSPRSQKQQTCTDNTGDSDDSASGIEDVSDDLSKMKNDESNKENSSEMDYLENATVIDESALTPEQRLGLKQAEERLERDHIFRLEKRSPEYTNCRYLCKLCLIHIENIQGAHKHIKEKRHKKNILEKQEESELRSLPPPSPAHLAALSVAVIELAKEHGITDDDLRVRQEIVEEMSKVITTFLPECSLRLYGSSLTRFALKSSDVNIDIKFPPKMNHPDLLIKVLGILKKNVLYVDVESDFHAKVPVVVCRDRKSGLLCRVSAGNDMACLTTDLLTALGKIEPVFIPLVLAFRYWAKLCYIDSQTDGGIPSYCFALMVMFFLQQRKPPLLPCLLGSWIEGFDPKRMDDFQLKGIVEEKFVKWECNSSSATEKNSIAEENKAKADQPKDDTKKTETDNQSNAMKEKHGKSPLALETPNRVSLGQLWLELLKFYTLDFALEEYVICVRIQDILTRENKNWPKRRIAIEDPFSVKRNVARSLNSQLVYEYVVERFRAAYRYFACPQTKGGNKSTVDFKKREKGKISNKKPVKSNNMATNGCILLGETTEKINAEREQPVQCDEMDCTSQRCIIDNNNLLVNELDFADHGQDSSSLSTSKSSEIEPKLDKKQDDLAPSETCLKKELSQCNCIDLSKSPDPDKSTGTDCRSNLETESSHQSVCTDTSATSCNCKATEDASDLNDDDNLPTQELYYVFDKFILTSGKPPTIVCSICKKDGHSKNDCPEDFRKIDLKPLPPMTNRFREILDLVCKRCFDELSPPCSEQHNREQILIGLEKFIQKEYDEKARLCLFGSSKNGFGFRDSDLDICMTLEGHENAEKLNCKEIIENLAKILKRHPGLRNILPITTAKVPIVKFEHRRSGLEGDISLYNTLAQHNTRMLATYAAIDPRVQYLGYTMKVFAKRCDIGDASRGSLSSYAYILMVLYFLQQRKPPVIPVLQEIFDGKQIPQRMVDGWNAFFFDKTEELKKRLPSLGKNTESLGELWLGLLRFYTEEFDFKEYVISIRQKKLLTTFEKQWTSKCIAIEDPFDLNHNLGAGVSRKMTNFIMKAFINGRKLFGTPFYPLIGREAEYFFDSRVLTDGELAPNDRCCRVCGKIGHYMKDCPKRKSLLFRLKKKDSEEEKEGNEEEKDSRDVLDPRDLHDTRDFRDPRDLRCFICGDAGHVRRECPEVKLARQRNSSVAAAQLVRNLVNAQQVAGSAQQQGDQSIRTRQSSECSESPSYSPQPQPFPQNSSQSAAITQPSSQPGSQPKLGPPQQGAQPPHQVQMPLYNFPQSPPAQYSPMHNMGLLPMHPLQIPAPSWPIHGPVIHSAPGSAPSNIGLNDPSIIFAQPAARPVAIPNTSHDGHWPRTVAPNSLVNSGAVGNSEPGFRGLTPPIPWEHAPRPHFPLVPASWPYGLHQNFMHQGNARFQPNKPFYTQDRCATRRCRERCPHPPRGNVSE
UniProt Q969T4: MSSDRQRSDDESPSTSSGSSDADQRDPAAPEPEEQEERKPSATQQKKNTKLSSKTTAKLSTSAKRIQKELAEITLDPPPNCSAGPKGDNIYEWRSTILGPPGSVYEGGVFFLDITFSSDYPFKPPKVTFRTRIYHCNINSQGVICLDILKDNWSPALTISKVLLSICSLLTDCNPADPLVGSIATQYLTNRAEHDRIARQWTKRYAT
UniProt Q6PKC3: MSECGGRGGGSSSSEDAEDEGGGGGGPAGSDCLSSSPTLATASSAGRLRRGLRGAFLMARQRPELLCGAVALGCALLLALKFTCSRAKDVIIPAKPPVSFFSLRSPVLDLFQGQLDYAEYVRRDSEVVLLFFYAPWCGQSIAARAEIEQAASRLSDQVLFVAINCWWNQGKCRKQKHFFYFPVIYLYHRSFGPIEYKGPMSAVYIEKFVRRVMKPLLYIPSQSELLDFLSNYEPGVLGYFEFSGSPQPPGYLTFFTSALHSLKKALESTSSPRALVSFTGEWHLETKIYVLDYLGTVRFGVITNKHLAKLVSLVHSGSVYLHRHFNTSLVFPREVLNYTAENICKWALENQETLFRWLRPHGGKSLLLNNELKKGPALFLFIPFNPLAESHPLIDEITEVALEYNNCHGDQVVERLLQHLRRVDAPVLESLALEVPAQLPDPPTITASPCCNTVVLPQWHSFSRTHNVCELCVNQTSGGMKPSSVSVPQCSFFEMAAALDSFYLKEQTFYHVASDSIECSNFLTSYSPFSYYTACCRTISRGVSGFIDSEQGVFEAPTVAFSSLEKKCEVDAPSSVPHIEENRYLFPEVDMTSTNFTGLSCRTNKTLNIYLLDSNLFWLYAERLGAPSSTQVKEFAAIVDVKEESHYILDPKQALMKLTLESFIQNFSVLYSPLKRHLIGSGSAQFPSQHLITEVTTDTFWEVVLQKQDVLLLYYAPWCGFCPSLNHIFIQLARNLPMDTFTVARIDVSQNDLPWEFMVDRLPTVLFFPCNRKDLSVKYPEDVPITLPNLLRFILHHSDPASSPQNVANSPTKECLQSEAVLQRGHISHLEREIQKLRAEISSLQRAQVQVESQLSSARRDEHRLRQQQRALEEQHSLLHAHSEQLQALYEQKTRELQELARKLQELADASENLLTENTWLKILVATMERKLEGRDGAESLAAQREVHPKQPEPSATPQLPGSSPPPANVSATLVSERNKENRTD
UniProt Q06418: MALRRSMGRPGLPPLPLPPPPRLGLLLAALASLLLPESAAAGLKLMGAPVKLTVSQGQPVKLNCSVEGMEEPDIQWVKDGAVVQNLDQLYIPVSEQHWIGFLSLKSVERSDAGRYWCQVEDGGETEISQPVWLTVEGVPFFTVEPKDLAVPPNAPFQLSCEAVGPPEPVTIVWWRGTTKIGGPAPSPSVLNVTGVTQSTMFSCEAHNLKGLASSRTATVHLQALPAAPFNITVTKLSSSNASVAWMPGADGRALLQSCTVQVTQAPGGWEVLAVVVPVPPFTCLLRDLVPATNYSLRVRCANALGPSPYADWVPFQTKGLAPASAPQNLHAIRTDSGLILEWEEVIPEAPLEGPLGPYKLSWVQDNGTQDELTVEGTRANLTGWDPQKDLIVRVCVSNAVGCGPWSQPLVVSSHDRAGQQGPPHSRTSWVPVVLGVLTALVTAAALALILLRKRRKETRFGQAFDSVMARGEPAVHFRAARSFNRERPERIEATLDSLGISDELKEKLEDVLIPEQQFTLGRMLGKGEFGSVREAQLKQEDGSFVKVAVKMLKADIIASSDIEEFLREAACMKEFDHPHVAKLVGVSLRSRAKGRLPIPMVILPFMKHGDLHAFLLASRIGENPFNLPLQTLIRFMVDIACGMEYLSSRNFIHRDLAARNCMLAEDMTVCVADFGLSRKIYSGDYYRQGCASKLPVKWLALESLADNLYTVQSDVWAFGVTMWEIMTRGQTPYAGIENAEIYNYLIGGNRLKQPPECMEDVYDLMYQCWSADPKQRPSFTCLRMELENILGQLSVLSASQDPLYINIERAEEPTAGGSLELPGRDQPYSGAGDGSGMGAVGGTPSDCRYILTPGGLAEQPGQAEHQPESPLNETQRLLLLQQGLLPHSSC
UniProt Q9P2K2: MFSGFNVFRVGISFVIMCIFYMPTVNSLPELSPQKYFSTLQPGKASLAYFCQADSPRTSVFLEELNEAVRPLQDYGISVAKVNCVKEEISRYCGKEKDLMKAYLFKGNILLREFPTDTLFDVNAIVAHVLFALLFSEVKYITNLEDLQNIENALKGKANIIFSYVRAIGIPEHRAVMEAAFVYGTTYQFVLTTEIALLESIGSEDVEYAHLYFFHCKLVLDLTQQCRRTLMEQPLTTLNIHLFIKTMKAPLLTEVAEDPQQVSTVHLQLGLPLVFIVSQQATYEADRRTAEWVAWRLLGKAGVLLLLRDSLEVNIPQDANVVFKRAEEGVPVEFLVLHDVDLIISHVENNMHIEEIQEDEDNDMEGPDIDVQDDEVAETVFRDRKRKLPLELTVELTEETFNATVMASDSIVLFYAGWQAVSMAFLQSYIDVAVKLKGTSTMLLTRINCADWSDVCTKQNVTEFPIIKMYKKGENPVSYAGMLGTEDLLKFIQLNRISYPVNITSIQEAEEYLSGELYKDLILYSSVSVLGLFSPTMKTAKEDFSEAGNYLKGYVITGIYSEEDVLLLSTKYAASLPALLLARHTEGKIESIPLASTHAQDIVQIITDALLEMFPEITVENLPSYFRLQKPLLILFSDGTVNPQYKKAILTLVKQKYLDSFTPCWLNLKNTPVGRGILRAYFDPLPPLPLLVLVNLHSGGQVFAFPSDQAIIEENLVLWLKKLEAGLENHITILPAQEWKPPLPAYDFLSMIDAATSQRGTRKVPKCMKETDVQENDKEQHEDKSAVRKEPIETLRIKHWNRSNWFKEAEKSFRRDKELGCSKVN
UniProt O60637: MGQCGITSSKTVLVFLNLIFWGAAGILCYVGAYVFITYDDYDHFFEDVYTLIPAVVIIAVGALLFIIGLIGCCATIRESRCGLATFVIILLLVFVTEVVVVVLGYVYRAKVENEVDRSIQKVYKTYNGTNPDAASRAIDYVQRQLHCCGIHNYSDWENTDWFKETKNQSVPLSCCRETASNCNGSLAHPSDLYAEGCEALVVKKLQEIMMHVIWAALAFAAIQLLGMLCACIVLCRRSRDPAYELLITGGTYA

ibrutinib = compound: C=CC(=O)N1CCC[C@@H](n2nc(-c3ccc(Oc4ccccc4)cc3)c3c(N)ncnc32)C1 [ibrutinib]
How it was run: as §1

[1] = compound: CC(=O)c1cnc2ccc(-c3cc(Cl)c(O)c(Cl)c3)nc2c1N[C@H]1CC[C@H](CN(C)C)CC1
How it was run: as §1

ralimetinib = compound: CC(C)(C)Cn1c(N)nc2ccc(-c3[nH]c(C(C)(C)C)nc3-c3ccc(F)cc3)nc21 [ralimetinib]
How it was run: as §1

[2] = compound: CC(C)(O)CC(=O)NCCn1ccc2ncnc(Nc3ccc(Oc4cccc(C(F)(F)F)c4)c(Cl)c3)c21
How it was run: as §1

[3] = compound: CC(C)C1=C2N=C(C=C(N2N=C1)NCC3=CC=CC=C3)NCCCCCCN
How it was run: as §1

[4] = compound: CC(C)C[C@@H](C=O)NC(=O)[C@H](CC(C)C)NC(=O)[C@H](CC(C)C)NC(=O)OCc1ccccc1
How it was run: as §1

pinometostat = compound: CC(C)N(C[C@H]1O[C@@H](n2cnc3c(N)ncnc32)[C@H](O)[C@@H]1O)[C@H]1C[C@@H](CCc2nc3cc(C(C)(C)C)ccc3[nH]2)C1 [pinometostat]
How it was run: as §1

[5] = compound: CC1=C(C(CC(=O)N1)C2=CC=C(C=C2)C(F)(F)F)C(=O)NC3=C(C=C4C(=C3)C=NN4)F
How it was run: as §1

[6] = compound: CC1=C(C2=C(C=C1)C(=O)C3=CC=CC=C3N2CCCN)C
How it was run: as §1

[7] = compound: CC1=C(C=C(C=C1)NC(=O)C2=CC(=CC=C2)C(C)(C)C#N)NC3=CC4=C(C=C3)N=CN(C4=O)C
How it was run: as §1

[8] = compound: CC1=C(C=C(C=C1)NC(=O)C2=CC(=CC=C2)N(C)C)NC(=O)C3=CC=C(C=C3)O
How it was run: as §1

[9] = compound: CC1=CC=C(C=C1)SC2=C3C=C(SC3=CN=C2)C(=O)N
How it was run: as §1

[10] = compound: CC1=NC(=CC=C1)C2=C(N=C(N2)C(C)(C)C)C3=CC4=NC=CN=C4C=C3
How it was run: as §1

Nexturastat A = compound: CCCCN(Cc1ccc(C(=O)NO)cc1)C(=O)Nc1ccccc1 [Nexturastat A]
How it was run: as §1

vemurafenib = compound: CCCS(=O)(=O)Nc1ccc(F)c(C(=O)c2c[nH]c3ncc(-c4ccc(Cl)cc4)cc23)c1F [vemurafenib]
How it was run: as §1

[11] = compound: CCCS(=O)(=O)Nc1ccc(F)c(C(=O)c2c[nH]c3ncc(Cl)cc23)c1F
How it was run: as §1

[12] = compound: CCCc1cc(C)[nH]c(=O)c1CNC(=O)c1cc(-c2ccnc(N3CCN(C)CC3)c2)cc2c1cnn2C(C)C
How it was run: as §1

givinostat = compound: CCN(CC)Cc1ccc2cc(COC(=O)Nc3ccc(C(=O)NO)cc3)ccc2c1 [givinostat]
How it was run: as §1

barasertib = compound: CCN(CCCOc1ccc2c(Nc3cc(CC(=O)Nc4cccc(F)c4)[nH]n3)ncnc2c1)CCOP(=O)(O)O [barasertib]
How it was run: as §1

Measured: log2 fold change

TWSG1 (UniProt Q9GZX9)
inactive: IRAK-1-4 Inhibitor I 0.066 | ibrutinib 0.026 | [1] -0.017 | ralimetinib 0.038 | [2] -0.025 | [3] -0.003 | [4] -0.032 | pinometostat 0.014 | [5] 0.044 | [6] 0.026 | [7] -0.037 | [8] -0.091 | [9] 0.034 | [10] -0.082 | Nexturastat A -0.166 | vemurafenib -0.004 | [11] -0.04 | [12] -0.002 | givinostat -0.182 | barasertib 0

TUBB2B (UniProt Q9BVA1)
inactive: IRAK-1-4 Inhibitor I 0.174 | ibrutinib 0 | [1] 0.05 | ralimetinib 0.041 | [3] 0.002 | [4] -0.037 | pinometostat -0.058 | [5] 0.022 | [6] 0.032 | [7] 0.009 | [8] 0.036 | [9] -0.08 | [10] 0.068 | vemurafenib -0.01 | [11] -0.187 | givinostat 0.102 | barasertib 0.033

UBE2K (UniProt D6RDM7)
inactive: IRAK-1-4 Inhibitor I -0.059 | ibrutinib -0.369 | ralimetinib 0.072 | [2] -0.04 | [4] 0.005 | pinometostat 0.131 | [5] 0.006 | [6] 0.125 | [7] -0.164 | [8] -0.08 | [9] -0.082 | [10] -0.194 | Nexturastat A 0.189 | vemurafenib -0.199 | [11] -0.187 | barasertib 0.16

TXNL4B (UniProt Q9NX01)
active: vemurafenib 0.453
inactive: IRAK-1-4 Inhibitor I 0.132 | ibrutinib -0.065 | [1] -0.071 | ralimetinib -0.057 | [3] -0.02 | [4] 0.074 | pinometostat -0.053 | [6] 0.067 | [7] -0.037 | [8] -0.088 | [9] -0.002 | [10] -0.04 | [11] 0.024 | [12] -0.06 | givinostat 0.014 | barasertib 0.306

UBC (UniProt P0CG48)
active: [4] 0.296 | [6] 0.281
inactive: IRAK-1-4 Inhibitor I 0.022 | ibrutinib 0.027 | [1] 0.033 | ralimetinib -0.064 | [2] 0.008 | [3] 0.167 | pinometostat 0.042 | [7] 0.007 | [8] -0.091 | [9] -0.001 | [10] -0.032 | Nexturastat A 0.151 | vemurafenib -0.016 | [11] -0.08 | [12] -0.017 | givinostat 0.028 | barasertib -0.018

TUBB8B (UniProt A6NNZ2)
inactive: IRAK-1-4 Inhibitor I 0.033 | ibrutinib 0.007 | ralimetinib -0.027 | [2] -0.044 | [3] -0.099 | [4] -0.012 | pinometostat -0.05 | [5] 0.021 | [6] 0.087 | [7] -0.013 | [8] 0.047 | [10] 0.04 | Nexturastat A -0.085 | vemurafenib 0.053 | [12] 0.017 | givinostat -0.115 | barasertib -0.046

TUBA4A (UniProt C9JJQ8)
inactive: IRAK-1-4 Inhibitor I -0.203 | ibrutinib -0.076 | pinometostat -0.121 | [6] -0.042 | [7] -0.019 | [9] 0.022 | [10] 0.138 | vemurafenib 0.053 | [11] -0.065 | barasertib 0.136

2 entries picked at random from those above:
TUBA4A (UniProt C9JJQ8)
inactive: IRAK-1-4 Inhibitor I -0.203 | ibrutinib -0.076 | pinometostat -0.121 | [6] -0.042 | [7] -0.019 | [9] 0.022 | [10] 0.138 | vemurafenib 0.053 | [11] -0.065 | barasertib 0.136

TXNL4B (UniProt Q9NX01)
active: vemurafenib 0.453
inactive: IRAK-1-4 Inhibitor I 0.132 | ibrutinib -0.065 | [1] -0.071 | ralimetinib -0.057 | [3] -0.02 | [4] 0.074 | pinometostat -0.053 | [6] 0.067 | [7] -0.037 | [8] -0.088 | [9] -0.002 | [10] -0.04 | [11] 0.024 | [12] -0.06 | givinostat 0.014 | barasertib 0.306

Next results.

UBE2G2 (UniProt P60604)
inactive: IRAK-1-4 Inhibitor I 0.04 | ibrutinib 0.059 | [1] 0.027 | ralimetinib 0.002 | [3] -0.492 | [4] -0.004 | pinometostat 0.035 | [5] -0.083 | [6] 0.405 | [7] -0.029 | [8] -0.055 | [9] 0.139 | [10] -0.001 | vemurafenib 0.106 | [11] 0.073 | [12] -0.034 | givinostat 0.033 | barasertib 0.078

UBE2Q1 (UniProt Q7Z7E8)
inactive: IRAK-1-4 Inhibitor I 0.024 | ibrutinib -0.012 | [1] 0.029 | ralimetinib -0.015 | [2] -0.062 | [3] -0.192 | [4] -0.11 | pinometostat 0.005 | [6] -0.006 | [7] 0.093 | [8] -0.041 | [9] -0.003 | [10] -0.037 | Nexturastat A 0.008 | vemurafenib 0.011 | [11] 0.114 | [12] -0.031 | givinostat 0.022 | barasertib 0.068

U2AF1L5 (UniProt P0DN76)
inactive: IRAK-1-4 Inhibitor I 0.042 | ibrutinib -0.032 | [1] -0.389 | [3] -0.19 | pinometostat 0.014 | [6] -0.067 | [10] -0.036 | vemurafenib 0.019 | [12] 0.06 | givinostat 0.563 | barasertib -0.127

TUT4 (UniProt Q5TAX3)
inactive: IRAK-1-4 Inhibitor I 0.078 | ibrutinib -0.029 | ralimetinib 0.07 | [2] 0 | [3] -0.219 | [4] 0.086 | pinometostat 0.059 | [6] 0.104 | [7] -0.124 | [8] -0.106 | [9] -0.081 | [10] -0.121 | Nexturastat A 0.449 | vemurafenib -0.129 | [11] -0.008 | [12] -0.124 | givinostat 0.069 | barasertib 0.027

UBE2S (UniProt Q16763)
inactive: IRAK-1-4 Inhibitor I -0.065 | ibrutinib -0.035 | [1] -0.037 | ralimetinib 0.03 | [2] -0.034 | [3] 0.018 | [4] 0.125 | pinometostat -0.05 | [6] -0.055 | [7] 0.024 | [8] -0.015 | [9] 0.004 | [10] 0.009 | Nexturastat A 0.057 | vemurafenib 0.013 | [11] 0.049 | [12] -0.007 | givinostat 0.044 | barasertib 0.03

UBE2E3 (UniProt Q969T4)
inactive: IRAK-1-4 Inhibitor I 0.106 | ibrutinib -0.059 | [1] -0.027 | ralimetinib 0.069 | [2] -0.046 | [3] -0.08 | [4] -0.039 | pinometostat 0.096 | [6] 0.066 | [7] 0.028 | [8] -0.059 | [9] 0.053 | [10] 0.08 | Nexturastat A -0.098 | vemurafenib -0.013 | [11] 0.08 | [12] 0.022 | givinostat 0.116 | barasertib 0.013

TXNDC11 (UniProt Q6PKC3)
inactive: IRAK-1-4 Inhibitor I -0.113 | ibrutinib -0.024 | [1] -0.003 | ralimetinib -0.025 | [2] 0.036 | [3] -0.025 | [4] 0.024 | pinometostat -0.066 | [6] -0.002 | [7] -0.003 | [8] 0.003 | [9] 0.037 | [10] -0.125 | Nexturastat A 0.061 | vemurafenib -0.053 | [11] 0.067 | [12] -0.089 | givinostat 0.043 | barasertib 0.026

TYRO3 (UniProt Q06418)
inactive: IRAK-1-4 Inhibitor I -0.029 | ibrutinib -0.071 | [2] -0.036 | pinometostat 0.132 | [5] 0.148 | [7] -0.189 | [10] -0.13 | Nexturastat A 0.142 | barasertib -0.024

TXNDC16 (UniProt Q9P2K2)
inactive: IRAK-1-4 Inhibitor I 0.054 | [1] -0.028 | ralimetinib 0.006 | [2] 0.048 | [3] -0.038 | [4] 0.045 | pinometostat 0.061 | [5] -0.005 | [6] -0.057 | [7] -0.067 | [8] 0.018 | [9] -0.074 | [10] -0.086 | Nexturastat A 0.053 | vemurafenib 0.027 | [11] 0.091 | [12] 0.05 | givinostat -0.03

TUBA4A (UniProt P68366)
inactive: IRAK-1-4 Inhibitor I 0.039 | ibrutinib 0.01 | [1] 0.001 | ralimetinib -0.044 | [2] -0.032 | [3] 0 | [4] 0.016 | pinometostat -0.039 | [6] 0.011 | [7] 0.005 | [8] 0.004 | [9] 0.061 | [10] 0.04 | Nexturastat A -0.03 | vemurafenib 0.005 | [11] 0.068 | [12] -0.004 | givinostat 0.014 | barasertib -0.002

TTC37 (UniProt Q6PGP7)
inactive: IRAK-1-4 Inhibitor I 0.257 | ibrutinib -0.067 | [1] 0.019 | ralimetinib -0.068 | [2] 0.227 | [4] -0.3 | pinometostat 0.22 | [8] 0.069 | [10] -0.694 | Nexturastat A 0.474 | vemurafenib -0.181 | barasertib 0.078

TSPAN3 (UniProt O60637)
inactive: IRAK-1-4 Inhibitor I -0.017 | ibrutinib -0.039 | [1] 0.025 | ralimetinib -0.337 | [3] -0.017 | [4] 0.169 | pinometostat -0.009 | [5] -0.015 | [6] 0.032 | [7] -0.048 | [8] -0.028 | [9] -0.071 | [10] 0.064 | vemurafenib 0.01 | [11] -0.135 | [12] -0.275 | givinostat 0.09 | barasertib -0.003

Reference: the supplement of paper PMC10849652
